# Data: patent publication US20250011427A1 (CONCEPT TO MEDICINE BIOTECH, published 2025)
# Sequences of proteins named here, by UniProt entry; tags and fusion partners are left off. A change or cut given only in a name is not applied to a line headed by its entry.
# UniProt P07766: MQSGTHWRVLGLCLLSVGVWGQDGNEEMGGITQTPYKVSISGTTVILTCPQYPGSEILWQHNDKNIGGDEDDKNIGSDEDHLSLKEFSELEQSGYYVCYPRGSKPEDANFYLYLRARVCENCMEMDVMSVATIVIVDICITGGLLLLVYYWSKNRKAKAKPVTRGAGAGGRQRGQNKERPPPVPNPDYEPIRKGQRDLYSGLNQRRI
# UniProt P04234: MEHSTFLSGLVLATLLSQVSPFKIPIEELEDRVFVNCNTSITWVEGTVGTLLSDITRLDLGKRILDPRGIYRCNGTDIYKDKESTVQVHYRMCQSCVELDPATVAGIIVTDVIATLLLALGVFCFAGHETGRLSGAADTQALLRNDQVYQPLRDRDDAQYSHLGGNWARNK
# These are yes or no findings as the source states them, for the method shown. Some binding calls cover weakened binding; strength is not graded here.
# Target: human CD3 protein (human) (UniProt P07766+P04234)
# Assay: ELISA
row,Binder,binding
1,"Hu155A9B1-3 (antibody, V domains shown) VH: EVQLQESGPGLVKPSETLSLTCTVSGGSISSYNVHWVRQPPGKGLEWMGRVRYNGDTSYNSALKSRLTISRDTSKNQFSLKLSSVTAADTAVYYCARGPYGGSSEPLFDYWGQGTMVTVSS VL: DIQMTQSPSSLSASVGDRVTITCKASQNINKYLNWYQQKPGKAPRLLIYTTNNLQTGVPSRFSGSGSGTDFTLTISSLQPEDFATYYCLQHNSGYTFGQGTKLEIK",binds
2,"Hu155A9B1-4 (antibody, V domains shown) VH: EVQLQESGPGLVKPSETLSLTCTVSGGSISSYNVHWVRQPPGKGLEWMGRVRYNGDTSYNSALKSRLTISRDTSKNQFSLKLSSVTAADTAVYYCTRGPYGGSSEPLFDYWGQGTMVTVSS VL: DIQMTQSPSSLSASVGDRVTITCKASQNINKYLNWYQQKPGKAPRLLIYTTNNLQTGVPSRFSGSGSGTDFTLTISSLQPEDFATYYCLQHNSGYTFGQGTKLEIK",binds
3,"Hu155A9B1-5 (antibody, V domains shown) VH: EVQLQESGPGLVKPSETLSLTCTVSGFSISSYNVHWVRQPPGKGLEWMGRVRYNGDTSYNSALKSRLTISRDTSKNQASLKLSSVTAADTAVYYCTRGPYGGSSEPLFDYWGQGTMVTVSS VL: DIQMTQSPSSLSASVGDRVTITCKASQNINKYLNWYQQKPGKAPRLLIYTTNNLQTGVPSRFSGSGSGTDFTLTISSLQPEDFATYYCLQHNSGYTFGQGTKLEIK",binds
4,"Hu155A9B1-6 (antibody, V domains shown) VH: EVQLQESGPGLVKPSETLSLTCTVSGFSLTSYNVHWVRQPPGKGLEWMGRVRYNGDTSYNSALKSRLTISRDTSKNQASLKLSSVTAADTAVYYCTRGPYGGSSEPLFDYWGQGTMVTVSS VL: DIQMTQSPSSLSASVGDRVTITCKASQNINKYLNWYQQKPGKAPRLLIYTTNNLQTGVPSRFSGSGSGTDFTLTISSLQPEDFATYYCLQHNSGYTFGQGTKLEIK",binds
5,"Hu155A9B1-7 (antibody, V domains shown) VH: EVQLQESGPGLVKPSETLSLTCTVSGGSISSYNVHWIRQPPGKGLEWIGRVRYNGDTSYNSALKSRVTISVDTSKNQFSLKLSSVTAADTAVYYCARGPYGGSSEPLFDYWGQGTMVTVSS VL: DIQMTQSPSSLSASVGDRVTITCKASQNINKYLNWFQQKPGKAPRLLIYTTNNLQTGIPSRFSGSGSGTDFTLTISSLQPEDFATYYCLQHNSGYTFGQGTKLEIK",binds
6,"Hu155A9B1-8 (antibody, V domains shown) VH: EVQLQESGPGLVKPSETLSLTCTVSGGSISSYNVHWVRQPPGKGLEWIGRVRYNGDTSYNSALKSRVTISRDTSKNQFSLKLSSVTAADTAVYYCARGPYGGSSEPLFDYWGQGTMVTVSS VL: DIQMTQSPSSLSASVGDRVTITCKASQNINKYLNWFQQKPGKAPRLLIYTTNNLQTGIPSRFSGSGSGTDFTLTISSLQPEDFATYYCLQHNSGYTFGQGTKLEIK",binds
7,"Hu155A9B1-9 (antibody, V domains shown) VH: EVQLQESGPGLVKPSETLSLTCTVSGGSISSYNVHWVRQPPGKGLEWMGRVRYNGDTSYNSALKSRLTISRDTSKNQFSLKLSSVTAADTAVYYCARGPYGGSSEPLFDYWGQGTMVTVSS VL: DIQMTQSPSSLSASVGDRVTITCKASQNINKYLNWFQQKPGKAPRLLIYTTNNLQTGIPSRFSGSGSGTDFTLTISSLQPEDFATYYCLQHNSGYTFGQGTKLEIK",binds
8,"Hu155A9B1-10 (antibody, V domains shown) VH: EVQLQESGPGLVKPSETLSLTCTVSGGSISSYNVHWVRQPPGKGLEWMGRVRYNGDTSYNSALKSRLTISRDTSKNQFSLKLSSVTAADTAVYYCTRGPYGGSSEPLFDYWGQGTMVTVSS VL: DIQMTQSPSSLSASVGDRVTITCKASQNINKYLNWFQQKPGKAPRLLIYTTNNLQTGIPSRFSGSGSGTDFTLTISSLQPEDFATYYCLQHNSGYTFGQGTKLEIK",binds
9,"Hu155A9B1-11 (antibody, V domains shown) VH: EVQLQESGPGLVKPSETLSLTCTVSGFSISSYNVHWVRQPPGKGLEWMGRVRYNGDTSYNSALKSRLTISRDTSKNQASLKLSSVTAADTAVYYCTRGPYGGSSEPLFDYWGQGTMVTVSS VL: DIQMTQSPSSLSASVGDRVTITCKASQNINKYLNWFQQKPGKAPRLLIYTTNNLQTGIPSRFSGSGSGTDFTLTISSLQPEDFATYYCLQHNSGYTFGQGTKLEIK",binds
10,"Hu155A9B1-12 (antibody, V domains shown) VH: EVQLQESGPGLVKPSETLSLTCTVSGFSLTSYNVHWVRQPPGKGLEWMGRVRYNGDTSYNSALKSRLTISRDTSKNQASLKLSSVTAADTAVYYCTRGPYGGSSEPLFDYWGQGTMVTVSS VL: DIQMTQSPSSLSASVGDRVTITCKASQNINKYLNWFQQKPGKAPRLLIYTTNNLQTGIPSRFSGSGSGTDFTLTISSLQPEDFATYYCLQHNSGYTFGQGTKLEIK",binds
11,"Hu155A9B1-13 (antibody, V domains shown) VH: EVQLQESGPGLVKPSETLSLTCTVSGGSISSYNVHWIRQPPGKGLEWIGRVRYNGDTSYNSALKSRVTISVDTSKNQFSLKLSSVTAADTAVYYCARGPYGGSSEPLFDYWGQGTMVTVSS VL: DIQMTQSPSSLSASVGDRVTITCKASQNINKYLNWFQQKPGKAPRLLIYTTNNLQTGIPSRFSGSGSGTDFTLTISSLQPEDFATYFCLQHNSGYTFGQGTKLEIK",binds
12,"Hu155A9B1-14 (antibody, V domains shown) VH: EVQLQESGPGLVKPSETLSLTCTVSGGSISSYNVHWVRQPPGKGLEWIGRVRYNGDTSYNSALKSRVTISRDTSKNQFSLKLSSVTAADTAVYYCARGPYGGSSEPLFDYWGQGTMVTVSS VL: DIQMTQSPSSLSASVGDRVTITCKASQNINKYLNWFQQKPGKAPRLLIYTTNNLQTGIPSRFSGSGSGTDFTLTISSLQPEDFATYFCLQHNSGYTFGQGTKLEIK",binds
13,"Hu155A9B1-15 (antibody, V domains shown) VH: EVQLQESGPGLVKPSETLSLTCTVSGGSISSYNVHWVRQPPGKGLEWMGRVRYNGDTSYNSALKSRLTISRDTSKNQFSLKLSSVTAADTAVYYCARGPYGGSSEPLFDYWGQGTMVTVSS VL: DIQMTQSPSSLSASVGDRVTITCKASQNINKYLNWFQQKPGKAPRLLIYTTNNLQTGIPSRFSGSGSGTDFTLTISSLQPEDFATYFCLQHNSGYTFGQGTKLEIK",binds
14,"Hu155A9B1-16 (antibody, V domains shown) VH: EVQLQESGPGLVKPSETLSLTCTVSGGSISSYNVHWVRQPPGKGLEWMGRVRYNGDTSYNSALKSRLTISRDTSKNQFSLKLSSVTAADTAVYYCTRGPYGGSSEPLFDYWGQGTMVTVSS VL: DIQMTQSPSSLSASVGDRVTITCKASQNINKYLNWFQQKPGKAPRLLIYTTNNLQTGIPSRFSGSGSGTDFTLTISSLQPEDFATYFCLQHNSGYTFGQGTKLEIK",binds
15,"Hu155A9B1-17 (antibody, V domains shown) VH: EVQLQESGPGLVKPSETLSLTCTVSGFSISSYNVHWVRQPPGKGLEWMGRVRYNGDTSYNSALKSRLTISRDTSKNQASLKLSSVTAADTAVYYCTRGPYGGSSEPLFDYWGQGTMVTVSS VL: DIQMTQSPSSLSASVGDRVTITCKASQNINKYLNWFQQKPGKAPRLLIYTTNNLQTGIPSRFSGSGSGTDFTLTISSLQPEDFATYFCLQHNSGYTFGQGTKLEIK",binds
16,"Hu155A9B1-18 (antibody, V domains shown) VH: EVQLQESGPGLVKPSETLSLTCTVSGFSLTSYNVHWVRQPPGKGLEWMGRVRYNGDTSYNSALKSRLTISRDTSKNQASLKLSSVTAADTAVYYCTRGPYGGSSEPLFDYWGQGTMVTVSS VL: DIQMTQSPSSLSASVGDRVTITCKASQNINKYLNWFQQKPGKAPRLLIYTTNNLQTGIPSRFSGSGSGTDFTLTISSLQPEDFATYFCLQHNSGYTFGQGTKLEIK",binds
